From US7445939B2, “Stable liquid membranes for liquid phase microextraction” (Varian, Inc., priority 2004, dated 2008)
Some of these results come from one statement about several compounds together. For some assays here: At least one structure is not confirmed: it was looked up by name or label, or the drawing left a doubt.

Key:
[1] = Extraction ability and storage stability of supported liquid membranes on hollow fibers (in words); format: physicochemical; details: polypropylene hollow fibers, room temperature
Method: The liquid membrane was formed by dipping the hollow fiber into the organic solvent for 5 to 30 sec to allow the solvent to penetrate into the pores of the fiber. Then acceptor solution was introduced into the lumen of the fiber using a syringe. The acceptor solution was 10 mM HCl, having a pH of 2. Extraction ability was tested by immersing the hollow fibers with their supported liquid membranes into a sample vial containing 4 mL of a solution containing 5 basic drugs, at a pH of 12, with stirring, and allowing the analytes to equilibrate across the liquid membranes to the acceptor solution within (25 μl 10 mM HCl). After allowing the sample analytes sufficient time to reach equilibration with the acceptor solution, about 15 to 60 minutes, the acceptor solution was withdrawn from the hollow fibers, and the concentration of analytes was determined using capillary electrophoresis.
Experiments were performed using polypropylene and polysulfone hollow fibers, testing the effectiveness and stability of liquid membranes comprising fatty oils in the extraction of analytes from samples after storage of the fibers for 30 days prior to use. Supported liquid membranes were established on the hollow fibers using the procedures described in Example 1 above, but substituting the following oils for the organic solvents tested in Example 1: tributyrin, soya oil, or olive oil. When fibers were to be stored, they were stored at room temperature attached to syringe needles mounted in a screw cap and placed in 4 mL vials. […] The fibers were stored for 30 days in this manner, and tested as described above.
A comprehensive stability study was performed over a 90 day period of time, using liquid membranes formed on porous polypropylene hollow fibers as described in Example 1, using the organic phases shown in Table 2. […] The fibers were stored as described in Example 1, protected from mechanical stress by storage in vials, but in contact with the air. […]

[2] = LPME enrichment of basic drugs, HPLC analysis; format: physicochemical; details: HPLC analysis of acceptor solution

| SMILES | Storage without disruption of the liquid membranes [1] | Enrichment [2] |
| --- | --- | --- |
| CCCC(=O)OCC(COC(=O)CCC)OC(=O)CCC [tributyrin] | at least 90 days | – |
| CCCCCCCCOc1ccccc1[N+](=O)[O-] [NPOE, nitropheyloctyl ether] | at least 90 days | – |
| CCCCCCCCCCCCOC(C)=O [DDA, dodecyl acetate] | at least 90 days | – |
| CN(C)CCC=C1c2ccccc2COc2ccccc21 [doxepin] | – | 100 to 200 fold |
| C=C[C@H]1C[N@@]2CC[C@H]1C[C@@H]2[C@@H](O)c1ccnc2ccc(OC)cc12 [quinidine] | – | 100 to 200 fold |
